Results from article PMC3364935.
These are yes or no findings as the source states them, for the method shown. Binding seen in cells or lysates may run through a third protein. Some results given as binding are weak or reduced against the parent protein; the word gives no strength. Sequences can lack the tags named with a protein.

Key:
[1] = biological target: T1, FLAG-tagged ARID4B, DBA allele (mouse) (UniProt A2CG63); assay: co-IP; HEK293 cells transiently transfected with FLAG-tagged ARID4B (AKR or DBA) and HA-BRMS1; anti-FLAG immunoprecipitation, overnight at 4°C; HA-BRMS1 by western blot
T1 sequence: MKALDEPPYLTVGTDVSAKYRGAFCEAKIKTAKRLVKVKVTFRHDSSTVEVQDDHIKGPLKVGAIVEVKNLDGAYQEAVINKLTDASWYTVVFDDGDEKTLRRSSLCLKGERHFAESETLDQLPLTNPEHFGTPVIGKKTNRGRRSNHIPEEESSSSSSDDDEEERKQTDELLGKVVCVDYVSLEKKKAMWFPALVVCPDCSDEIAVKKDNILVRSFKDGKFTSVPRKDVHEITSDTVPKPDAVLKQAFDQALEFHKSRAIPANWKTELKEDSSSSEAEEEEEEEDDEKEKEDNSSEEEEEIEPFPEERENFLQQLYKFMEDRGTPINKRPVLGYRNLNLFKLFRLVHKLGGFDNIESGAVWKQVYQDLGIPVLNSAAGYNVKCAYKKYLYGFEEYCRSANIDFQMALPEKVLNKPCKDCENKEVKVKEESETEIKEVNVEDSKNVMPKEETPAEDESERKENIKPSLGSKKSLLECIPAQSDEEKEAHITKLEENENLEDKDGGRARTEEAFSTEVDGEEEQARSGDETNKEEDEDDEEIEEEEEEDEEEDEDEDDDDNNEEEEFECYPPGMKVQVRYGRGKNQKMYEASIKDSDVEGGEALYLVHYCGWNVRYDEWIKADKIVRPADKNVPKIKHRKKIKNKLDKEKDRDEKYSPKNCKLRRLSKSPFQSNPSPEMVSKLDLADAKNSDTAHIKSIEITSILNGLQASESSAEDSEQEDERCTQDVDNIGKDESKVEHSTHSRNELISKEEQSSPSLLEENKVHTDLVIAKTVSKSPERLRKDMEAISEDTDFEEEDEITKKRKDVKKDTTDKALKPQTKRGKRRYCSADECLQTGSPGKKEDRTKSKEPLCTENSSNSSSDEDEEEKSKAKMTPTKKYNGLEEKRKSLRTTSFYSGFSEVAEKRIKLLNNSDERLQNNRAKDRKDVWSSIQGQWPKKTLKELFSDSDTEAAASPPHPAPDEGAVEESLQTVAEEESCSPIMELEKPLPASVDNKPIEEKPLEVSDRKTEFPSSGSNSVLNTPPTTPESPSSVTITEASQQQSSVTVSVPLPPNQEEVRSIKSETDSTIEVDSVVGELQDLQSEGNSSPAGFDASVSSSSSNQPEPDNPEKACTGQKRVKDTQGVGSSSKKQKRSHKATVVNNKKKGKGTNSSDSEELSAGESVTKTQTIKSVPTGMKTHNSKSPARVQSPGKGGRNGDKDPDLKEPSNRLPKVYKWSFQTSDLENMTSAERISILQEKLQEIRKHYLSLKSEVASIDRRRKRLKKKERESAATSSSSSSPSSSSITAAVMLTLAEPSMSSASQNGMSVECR

[2] = biological target: T2, myc-BRMS1 (UniProt Q9HCU9); assay: co-IP; HEK293 cells transiently transfected with FLAG-tagged ARID4B (AKR or DBA) and myc-BRMS1; anti-myc immunoprecipitation, overnight at 4°C; FLAG-ARID4B by western blot
T2 sequence: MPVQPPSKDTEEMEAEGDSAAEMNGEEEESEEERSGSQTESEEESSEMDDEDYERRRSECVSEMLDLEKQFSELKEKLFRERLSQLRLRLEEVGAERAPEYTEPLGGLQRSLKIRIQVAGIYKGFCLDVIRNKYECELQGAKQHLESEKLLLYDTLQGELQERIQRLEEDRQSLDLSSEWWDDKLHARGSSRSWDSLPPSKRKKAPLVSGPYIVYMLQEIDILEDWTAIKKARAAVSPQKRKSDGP

B1: HA-BRMS1 (protein, UniProt Q9HCU9 1-246)
chain: MPVQPPSKDTEEMEAEGDSAAEMNGEEEESEEERSGSQTESEEESSEMDDEDYERRRSECVSEMLDLEKQFSELKEKLFRERLSQLRLRLEEVGAERAPEYTEPLGGLQRSLKIRIQVAGIYKGFCLDVIRNKYECELQGAKQHLESEKLLLYDTLQGELQERIQRLEEDRQSLDLSSEWWDDKLHARGSSRSWDSLPPSKRKKAPLVSGPYIVYMLQEIDILEDWTAIKKARAAVSPQKRKSDGP
Question: B1 was tested. Which binding [1] did it give?
Answer: binds

B2: FLAG-tagged ARID4B, DBA allele (protein, UniProt A2CG63-1 1-1314)
chain: MKALDEPPYLTVGTDVSAKYRGAFCEAKIKTAKRLVKVKVTFRHDSSTVEVQDDHIKGPLKVGAIVEVKNLDGAYQEAVINKLTDASWYTVVFDDGDEKTLRRSSLCLKGERHFAESETLDQLPLTNPEHFGTPVIGKKTNRGRRSNHIPEEESSSSSSDDDEEERKQTDELLGKVVCVDYVSLEKKKAMWFPALVVCPDCSDEIAVKKDNILVRSFKDGKFTSVPRKDVHEITSDTVPKPDAVLKQAFDQALEFHKSRAIPANWKTELKEDSSSSEAEEEEEEEDDEKEKEDNSSEEEEEIEPFPEERENFLQQLYKFMEDRGTPINKRPVLGYRNLNLFKLFRLVHKLGGFDNIESGAVWKQVYQDLGIPVLNSAAGYNVKCAYKKYLYGFEEYCRSANIDFQMALPEKVLNKPCKDCENKEVKVKEESETEIKEVNVEDSKNVMPKEETPAEDESERKENIKPSLGSKKSLLECIPAQSDEEKEAHITKLEENENLEDKDGGRARTEEAFSTEVDGEEEQARSGDETNKEEDEDDEEIEEEEEEDEEEDEDEDDDDNNEEEEFECYPPGMKVQVRYGRGKNQKMYEASIKDSDVEGGEALYLVHYCGWNVRYDEWIKADKIVRPADKNVPKIKHRKKIKNKLDKEKDRDEKYSPKNCKLRRLSKSPFQSNPSPEMVSKLDLADAKNSDTAHIKSIEITSILNGLQASESSAEDSEQEDERCTQDVDNIGKDESKVEHSTHSRNELISKEEQSSPSLLEENKVHTDLVIAKTVSKSPERLRKDMEAISEDTDFEEEDEITKKRKDVKKDTTDKALKPQTKRGKRRYCSADECLQTGSPGKKEDRTKSKEPLCTENSSNSSSDEDEEEKSKAKMTPTKKYNGLEEKRKSLRTTSFYSGFSEVAEKRIKLLNNSDERLQNNRAKDRKDVWSSIQGQWPKKTLKELFSDSDTEAAASPPHPAPDEGAVEESLQTVAEEESCSPIMELEKPLPASVDNKPIEEKPLEVSDRKTEFPSSGSNSVLNTPPTTPESPSSVTITEASQQQSSVTVSVPLPPNQEEVRSIKSETDSTIEVDSVVGELQDLQSEGNSSPAGFDASVSSSSSNQPEPDNPEKACTGQKRVKDTQGVGSSSKKQKRSHKATVVNNKKKGKGTNSSDSEELSAGESVTKTQTIKSVPTGMKTHNSKSPARVQSPGKGGRNGDKDPDLKEPSNRLPKVYKWSFQTSDLENMTSAERISILQEKLQEIRKHYLSLKSEVASIDRRRKRLKKKERESAATSSSSSSPSSSSITAAVMLTLAEPSMSSASQNGMSVECR
Question: With B2 as the binder, how does the binding [2] read?
Answer: binds
